Measurements: publication PMC3052437
No constants are given. Whether binding was seen depends on the method and setting. Binding seen in cells or lysates may run through a third protein. Some results given as binding are weak or reduced against the parent protein; the word gives no strength. Sequences can lack the tags named with a protein.

Sequences of proteins named here, by UniProt entry; tags and fusion partners are left off.
UniProt P37231: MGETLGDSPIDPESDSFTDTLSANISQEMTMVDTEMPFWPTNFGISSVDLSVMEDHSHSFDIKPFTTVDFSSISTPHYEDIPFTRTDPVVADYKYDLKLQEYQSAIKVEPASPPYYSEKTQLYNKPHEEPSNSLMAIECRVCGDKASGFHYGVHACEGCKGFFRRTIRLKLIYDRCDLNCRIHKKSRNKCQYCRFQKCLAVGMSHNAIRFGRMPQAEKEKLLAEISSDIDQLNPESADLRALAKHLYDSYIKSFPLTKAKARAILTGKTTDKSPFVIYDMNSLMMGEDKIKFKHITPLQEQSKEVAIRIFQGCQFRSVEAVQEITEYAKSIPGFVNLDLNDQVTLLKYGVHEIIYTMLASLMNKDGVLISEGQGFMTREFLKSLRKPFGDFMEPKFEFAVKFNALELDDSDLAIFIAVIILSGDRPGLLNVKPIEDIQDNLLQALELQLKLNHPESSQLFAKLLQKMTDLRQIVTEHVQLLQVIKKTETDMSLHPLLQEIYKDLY

Molecular target: T1, V5-STAT6 (UniProt P42226)
T1 sequence: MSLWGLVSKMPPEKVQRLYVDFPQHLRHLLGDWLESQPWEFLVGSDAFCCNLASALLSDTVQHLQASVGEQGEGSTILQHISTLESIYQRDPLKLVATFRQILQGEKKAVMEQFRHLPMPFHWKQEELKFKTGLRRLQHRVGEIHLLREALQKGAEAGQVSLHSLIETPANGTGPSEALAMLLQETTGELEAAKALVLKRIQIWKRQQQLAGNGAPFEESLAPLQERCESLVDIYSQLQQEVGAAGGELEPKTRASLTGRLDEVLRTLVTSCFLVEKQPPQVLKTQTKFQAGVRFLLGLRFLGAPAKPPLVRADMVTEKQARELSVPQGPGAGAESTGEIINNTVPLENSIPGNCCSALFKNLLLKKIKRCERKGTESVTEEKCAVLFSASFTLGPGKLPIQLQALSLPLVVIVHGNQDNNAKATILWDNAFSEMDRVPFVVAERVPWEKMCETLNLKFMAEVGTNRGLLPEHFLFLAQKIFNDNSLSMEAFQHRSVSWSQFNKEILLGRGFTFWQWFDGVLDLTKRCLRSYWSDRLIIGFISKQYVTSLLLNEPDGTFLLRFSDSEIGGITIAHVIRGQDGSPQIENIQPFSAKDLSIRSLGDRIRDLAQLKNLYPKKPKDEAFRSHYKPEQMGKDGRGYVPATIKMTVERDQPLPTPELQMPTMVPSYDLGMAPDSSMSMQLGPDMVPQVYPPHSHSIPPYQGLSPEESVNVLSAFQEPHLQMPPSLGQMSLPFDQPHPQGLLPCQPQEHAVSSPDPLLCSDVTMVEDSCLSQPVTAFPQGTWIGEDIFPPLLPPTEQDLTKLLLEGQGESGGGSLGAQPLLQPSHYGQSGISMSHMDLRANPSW
Assay: co-IP; HEK293T cells transfected with V5-STAT6 and Flag-PPARg; whole cell lysates; immunoprecipitation with V5 or Flag M2 antibodies, then immunoblotting; treatments as indicated in the figure

binding: binds
Substance: Flag-PPARγ (from UniProt P37231 1-505)
